Test results from patent US20240299401A1, “NOVEL REDOX-BASED THERAPEUTIC APPROACH FOR TREATMENT OF CANCER” (THE PENN STATE RESEARCH FOUNDATION, priority 2020, published 2024).
At least one compound was matched to its structure with a doubt left.

Test system: splenocytes comprising normal and leukemic cells
Test: Frequency of normal and leukemic splenocytes by flow cytometry (CD45.1)
Conditions: 10.0 μM; 67 h

O=[Se](O)O [Sodium selenite, sodium selenite]
frequency of leukemic cells: diminished frequency of leukemic cells
